Results as given in PubChem BioAssay AID1794845 (National Center for Advancing Translational Sciences (NCATS), 2023).
The whole screen tested about 6,900 compounds, of which fewer than 10 were called active. Calls come from the whole dose curve; as a rule, active = well fitted curve in the direction sought with a large enough effect; inconclusive = small, poorly fitted or top-dose-only effect, or another doubt; inactive = no such curve, though single readings can be large or run the other way. This is one part of the list.

By UniProt entry, the sequences of proteins in these tests, tags left out. Where a name states a change or a piece, a line headed by the entry shows the natural chain unless it says otherwise.
UniProt C7C422: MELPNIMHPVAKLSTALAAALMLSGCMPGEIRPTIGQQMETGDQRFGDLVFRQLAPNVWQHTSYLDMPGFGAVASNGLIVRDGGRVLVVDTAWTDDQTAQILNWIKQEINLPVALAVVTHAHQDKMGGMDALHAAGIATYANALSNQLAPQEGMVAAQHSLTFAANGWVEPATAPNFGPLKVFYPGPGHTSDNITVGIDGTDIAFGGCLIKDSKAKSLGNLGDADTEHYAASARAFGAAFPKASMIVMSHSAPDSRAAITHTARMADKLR

biological target: Metallo-beta-lactamase type 2 (Klebsiella pneumoniae) (UniProt C7C422); assay: qHTS to identify inhibitors of the New Delhi Metallo-beta-lactamase (NDM): primary screen against the NCATS Gemini Collection; conditions: NDM-1 enzyme, meropenem hydrolysis, absorbance 300 nm; at 38.4 µM (top of the series) unless noted; note: % of control where 0% means no effect
In short: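 NDM-1 at 2 nM final in 50 mM HEPES pH 7.0, 1 uM ZnSO4, 0.01% Tween20, preincubated >30 min with compound. Meropenem 50 uM final added; absorbance at 300 nm after 30 min.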

Activity % (negative = inhibition), inactive:
COc1ccc2nc([C@H]3CCN(Cc4cccnc4)C3)[nH]c2c1 27.5% [at 57.5 µM]
CS(=O)(=O)c1ccc(CN2C[C@H](O)C[C@H]2c2nc(C3CC3)no2)cc1 -0.414% [at 57.5 µM]
CCCS(=O)(=O)N1CCC(c2noc(-c3cccnc3)n2)C1 (centres undefined) 4.2%
CNC(=O)[C@@H]1CN(C(=O)c2ccncc2)C[C@H]1CO -3.3%
Cc1nc(C)n(CCNC(=O)[C@H]2CNC[C@@H](C(=O)N3CCOCC3)C2)n1 -3.23%
O=C(NCc1nnc2n1C(C(=O)NCc1ccc(F)cc1)CC2)Nc1cccnc1 (centres undefined) -2.93%
C[C@H]1[C@@H]2[C@@H](O)C([C@H](C)C(=O)N3CCC(Cc4ccccc4)CC3)CC[C@@]2(C)CC[C@@H]1NC(=O)c1cnccn1 (some centres undefined) -3.18%
CC1CCCN(c2ncnc3c2CN(c2ccc(Cl)cc2)C(=O)CN3C)C1 (centres undefined) 6.21%
CS(=O)(=O)c1ccc(S(=O)(=O)N2CCC3(CCCNC3)C2)cc1 (centres undefined) -1.25%
Cc1ccc(-n2nc(C)c([C@H]3C=C[C@@H](OC(=O)N[C@H](C)c4ccccc4)C3)c2C)cc1Cl 2.37%
CCCCSCc1cc(C(=O)N2CC(C)(C)C(C)(O)C2)oc1C (centres undefined) -1.04%
COc1ccccc1-n1cc(C(=O)N2CCCC2c2nonc2C)cn1 (centres undefined) -0.641%
Cc1ccc(S(=O)(=O)N2CCC(Oc3ncccc3C(=O)N(C)C)C2)cc1C (centres undefined) -0.853%
Cc1cccc(C(=O)N2CCCCCNC(=O)CC2c2ccccc2)c1 (centres undefined) 21.2%
CCOc1ccccc1NC(=O)N1CCCCCCNC(=O)CC1c1ccccc1 (centres undefined) 12.8%
O=C(NC1CCOCC1)c1cccc(S(=O)(=O)N2CCC[C@H]2CO)c1 6.92%
CSCCC(=O)N[C@H]1CN(c2cc(C3CC3)ncn2)C[C@@H]1C1CC1 2.74%
CN(C)C[C@@H]1CN(C2CCOCC2)C[C@H]1NC(=O)c1cc2ccccc2[nH]1 43.5%
O=C(CN1C(=O)CNC1=O)N[C@H](c1ccc2c(c1)CCO2)C1CC(O)C1 (some centres undefined) 0.97%
CO[C@@H]1COCC[C@H]1NC(=O)c1cn(CCN2CCNCC2)nn1 28.6%
COC1CCCN(C(=O)c2cnc(Cc3c(Cl)cccc3Cl)[nH]c2=O)C1 (centres undefined) 3.91%
O=C([C@@H]1C[C@H](F)CN1S(=O)(=O)Cc1ccccc1)N1CCOCC1 4.38%
COCCCNc1nc(-c2cccnc2)nc2c1CNC2 39.4%
COc1ccc(-c2cnc([C@@H]3COCCN3Cc3nc4ccccc4n3C)[nH]2)cc1 92.2% [at 57.5 µM]
CC(=O)N1CCc2nn(CC(=O)Nc3ccccc3C(C)C)c(=O)cc2C1 0.0883%
O=C(c1cc(CN2CCC(Cc3ccccc3)CC2)on1)N1CCN2CCCC2C1 (centres undefined) 26.7%
CCN(Cc1nccn1C)C(=O)c1cc(-c2cnc(C)nc2)nc2ccc(F)cc12 1.51%
CCC(C(=O)NCc1c(C)ncc2c1CCNC2)n1cccn1 (centres undefined) 3.89%
O=C(C1CCOCC1)N1CCOC[C@H](Oc2ccccc2)C1 -5.25% [at 57.5 µM]
O=C(O)c1ccnc(-c2ccnc(NCCCN3CCCC3=O)n2)c1 15.2%
Cc1ccc(Nc2ccnc(N3CCC(C(=O)NCc4ccc(F)cc4)CC3)n2)cc1 8.62%
OCC1(CN2CCCC2)CCN(Cc2cnn(-c3ccccc3)c2)CC1 1.86%
COc1cccc(CNC(=O)C2CCCCc3nnc(-c4ccccc4)n32)c1 (centres undefined) -4.37%
Cc1n[nH]c(C)c1CNC(=O)C1CCCCC(=O)N1 (centres undefined) -0.828%
CN(Cc1ccccc1)C1(C(=O)NC2CCC(O)CC2)Cc2ccccc2C1 (centres undefined) -8.52%
CN1CCN(c2nc3c(c(=O)[nH]2)CCN(Cc2cccnc2)CC3)CC1 -1.45%
O=C1CCC2(CCCO2)CCN1Cc1ccc(C(F)(F)F)c(F)c1 (centres undefined) 14.6%
C=CC[C@@H]1CC=C[C@@H](C)N1C(=O)c1cc(OC)ccc1OC1CCN(C(=O)C2CC2)CC1 -13.8%
COc1ccc(S(=O)(=O)N2C[C@@H]3C[C@H](C2)c2c(NC(=O)c4ccccc4)ccc(=O)n2C3)cc1 -2.64%
CC1=C[C@@H](CNC(=O)COc2ccccc2)[C@H](C(C)C)C[C@H]1CC(=O)NCCN(C)C -1.64% [at 57.5 µM]
CC1(C(=O)Nc2ccccc2)CN(Cc2ccccc2)Cc2ccc(N3CCOCC3)nc21 (centres undefined) 0.823%
CCOC(=O)c1cnc(N2CC3CCC(C2)N3CC(F)(F)F)s1 23.8%
COCCn1nc2n(c1=O)CCN(Cc1cccc(OC)n1)CC2 -4.84%
CCn1cc(-c2ccncc2)cc1C(=O)NCc1ccc(OC(C)C)cc1 3.84%
Cc1ccsc1C(=O)NC1CCN(c2cc(-c3ccc(F)cc3)[nH]n2)C1 (centres undefined) -1.05%
O=C(Cn1ccn2nc(-c3ccc(F)cc3)c(CO)c2c1=O)Nc1ccc(F)cc1F 1.87%
CCS(=O)(=O)N1CCC2(CC1)CN(c1cccc(F)c1)C2c1ccccc1 (centres undefined) 0.315%
CCn1nc(C)cc1C(=O)N1CCOC[C@H](Oc2cccnc2)C1 9.19% [at 57.5 µM]
Cc1nc(N2CCCC2)nc(N2CCC3(CC2)OCCCC3O)c1C (centres undefined) 5.04%
O=[S+]([O-])(NCC1CN(Cc2ccc3[nH]ccc3c2)CC12CN(c1ccccc1)C2)c1ccccc1 (centres undefined) -2.28%
CC(C)Cn1nc(C(=O)O)c2c1CCN(C(=O)CC(C)c1ccccc1)C2 (centres undefined) 15.5%
Cc1cnc(-c2ccccc2)n1C1CCN(S(C)(=O)=O)CC1 -4.41%
NC1CCCCN(C(=O)c2ccc(Cn3cccn3)o2)C1 (centres undefined) 74.2%
COc1ccccc1C(=O)NC[C@@H]1C=C(C)[C@H](CC(=O)NCc2ccccn2)C[C@H]1C(C)C -0.339%

Ordered by number of heavy atoms (low to high): some entries from above
Activity % (negative = inhibition), inactive:
Cc1n[nH]c(C)c1CNC(=O)C1CCCCC(=O)N1 (centres undefined) -0.828%
Cc1ccc(-n2nc(C)c([C@H]3C=C[C@@H](OC(=O)N[C@H](C)c4ccccc4)C3)c2C)cc1Cl 2.37%
COc1ccccc1C(=O)NC[C@@H]1C=C(C)[C@H](CC(=O)NCc2ccccn2)C[C@H]1C(C)C -0.339%
C[C@H]1[C@@H]2[C@@H](O)C([C@H](C)C(=O)N3CCC(Cc4ccccc4)CC3)CC[C@@]2(C)CC[C@@H]1NC(=O)c1cnccn1 (some centres undefined) -3.18%
